Reference: patent US20100105874A1
These are yes or no findings as the source states them, for the method shown. Some binding calls cover weakened binding; strength is not graded here. One block for each binder: values may come before it.

The chains behind the UniProt entries cited, without tags or fusion partners. Where a name states a change or a piece, a line headed by the entry shows the natural chain unless it says otherwise.
UniProt P30440: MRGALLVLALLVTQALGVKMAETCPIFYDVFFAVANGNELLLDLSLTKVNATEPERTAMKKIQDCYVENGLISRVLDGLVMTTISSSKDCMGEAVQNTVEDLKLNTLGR

What was measured:
Fel d 1 (cat) [1] = biological target: T1, Fel d 1 (cat) (UniProt P30438+P30440); assay: cross-linking radioassay on Superdex200 fractions of mouse plasma
Bet v 1 (birch) [2] = biological target: T2, Bet v 1 (birch) (UniProt P15494); assay: as above
T2 sequence (125I label where used as the soluble tracer, looked up): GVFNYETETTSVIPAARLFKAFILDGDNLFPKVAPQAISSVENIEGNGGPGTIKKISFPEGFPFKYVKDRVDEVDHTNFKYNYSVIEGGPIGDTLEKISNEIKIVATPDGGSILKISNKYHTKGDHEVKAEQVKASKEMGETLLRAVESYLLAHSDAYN

Fel d 1 (cat) [3] = biological target: T1, Fel d 1 (cat); assay: cross-linking radioassay (Sepharose-coupled cat extract, 125I-Bet v 1) on Superdex200 fractions, IgG4 mix incubated with erythrocyte lysate
Bet v 1 (birch) [4] = biological target: T2, Bet v 1 (birch); assay: as above
Fel d 1 (cat) [5] = biological target: T1, Fel d 1 (cat); assay: heterologous cross-linking assay (Sepharose-coupled Fel d 1, 125I-Bet v 1), mouse plasma
Bet v 1 (birch) [6] = biological target: T2, Bet v 1 (birch); assay: as above
Fel d 1 (cat) [7] = biological target: T1, Fel d 1 (cat); assay: heterologous cross-linking assay (Fel d 1-Bet v 1) after 24 h with reducing agents
Bet v 1 (birch) [8] = biological target: T2, Bet v 1 (birch); assay: as above
Fel d 1 (cat) [9] = biological target: T1, Fel d 1 (cat); assay: cross-linking radioassay on Superdex200 fractions, IgG4 mix incubated with 0.5 mM GSH
Bet v 1 (birch) [10] = biological target: T2, Bet v 1 (birch); assay: as above
Fel d 1 (cat) [11] = biological target: T1, Fel d 1 (cat); assay: bispecific activity to Bet v 1 and Fel d 1 in SCID mouse plasma, cross-linking radioassay
Bet v 1 (birch) [12] = biological target: T2, Bet v 1 (birch); assay: as above
Fel d 1 (cat) [13] = biological target: T1, Fel d 1 (cat); assay: cross-linking radioassay on Superdex200 fractions, IgG4 mix incubated with erythrocytes for 72 h
Bet v 1 (birch) [14] = biological target: T2, Bet v 1 (birch); assay: as above
Fel d 1 (cat) [15] = biological target: T1, Fel d 1 (cat); assay: cross-linking radioassay on Superdex200 fractions, IgG4 mix incubated with whole blood components
Bet v 1 (birch) [16] = biological target: T2, Bet v 1 (birch); assay: as above
Bet v 1 (birch) [17] = biological target: T2, Bet v 1 (birch); assay: antigen binding test (protein G Sepharose, 125I-Bet v 1)
Bet v 1 (birch) [18] = biological target: T2, Bet v 1 (birch); assay: antigen binding test (protein G Sepharose, 125I-Bet v 1) on Superdex200 fractions, IgG4 mix with erythrocyte lysate
Bet v 1 (birch) [19] = biological target: T2, Bet v 1 (birch); assay: antigen binding test (protein G Sepharose, 125I-Bet v 1) on Superdex200 fractions, IgG4 mix with 0.5 mM GSH
Fel d 1 (cat) [20] = biological target: T1, Fel d 1 (cat); assay: homologous cross-linking of 125I-Fel d 1 to Sepharose-immobilized Fel d 1, mouse plasma
Fel d 1 (cat) [21] = biological target: T1, Fel d 1 (cat); assay: homologous Fel d 1 cross-linking (bivalency) assay, incubation with erythrocytes
Fel d 1 (cat) [22] = biological target: T1, Fel d 1 (cat); assay: antigen binding test (protein G Sepharose, 125I-Fel d 1) on Superdex200 fractions of plasma of a mouse dosed with the IgG4 mix

B1: bispecific IgG4 (Bet v 1-Fel d 1) (bispecific antibody, V domains shown)
VH 1: EVQLQQSGAELVKPGASVKLSCTASGFNIKDTYIHWVKQRPEQGLEWVGRIDPATGNTRYDPKFQGKATITADTSSNTAYLQLSSLTSEDTAVYYCASFRPGYALDYWGQGTSVTVSS
VL 1: DIVMTQSHKFMSTSVGDRVSFTCKASQDVFTAVAWYQQKPGQSPKLLIYWASTRRTGVPDRFTGSGSGTDYTLTISSVQAEDLALYYCQQHFSTPPTFGGGTKLEIK
VH 2: QVQLQQPGAELVKPGASVKLSCKASGYSFTSYWMHWLKQRPGQGLEWIGEINPNNGRTYYNEKFKTKATLTVDKSSSTAYMQLNSLTSEDSAVYYCARRLTMVESFAYWGQGTLVTFSA
VL 2: DIVMTQSPSSLTVTAGEKVTMSCKSSQSLLNSGNQKNYLTWYQQKPGQPPKLLIYWASTRESGVPDRFTGSGSGTDFSLTISSVQAEDLAIYYCQNDYSYPFTFGSGTKLEIK
binding (Fel d 1 (cat) [1]): binds
binding (Bet v 1 (birch) [2]): binds
binding (Fel d 1 (cat) [3]): binds
binding (Bet v 1 (birch) [4]): binds
binding (Fel d 1 (cat) [5]): binds
binding (Bet v 1 (birch) [6]): binds
binding (Fel d 1 (cat) [7]): binds
binding (Bet v 1 (birch) [8]): binds
binding (Fel d 1 (cat) [9]): binds
binding (Bet v 1 (birch) [10]): binds
binding (Fel d 1 (cat) [11]): binds
binding (Bet v 1 (birch) [12]): binds
binding (Fel d 1 (cat) [13]): binds
binding (Bet v 1 (birch) [14]): binds
binding (Fel d 1 (cat) [15]): binds
binding (Bet v 1 (birch) [16]): binds

B2: Betv1-IgG1 (antibody, V domains shown)
VH: B1 VH 1
VL: B1 VL 1
binding (Bet v 1 (birch) [17]): binds

Now from value to binder:

binding (Bet v 1 (birch) [18]): binds
binding (Bet v 1 (birch) [19]): binds
B3: Betv1-IgG4 (antibody, V domains shown)
VH: B1 VH 1
VL: B1 VL 1

binding (Fel d 1 (cat) [20]): binds
binding (Fel d 1 (cat) [21]): binds
B4: Feld1-IgG1 (antibody, V domains shown)
VH: B1 VH 2
VL: B1 VL 2

binding (Fel d 1 (cat) [20]): binds
binding (Fel d 1 (cat) [22]): binds
B5: Feld1-IgG4 (antibody, V domains shown)
VH: B1 VH 2
VL: B1 VL 2
